Holding throughout (conditions): stereoisomer not certain
One assay deals with T1, OR2W1.
T1 sequence (whole entry): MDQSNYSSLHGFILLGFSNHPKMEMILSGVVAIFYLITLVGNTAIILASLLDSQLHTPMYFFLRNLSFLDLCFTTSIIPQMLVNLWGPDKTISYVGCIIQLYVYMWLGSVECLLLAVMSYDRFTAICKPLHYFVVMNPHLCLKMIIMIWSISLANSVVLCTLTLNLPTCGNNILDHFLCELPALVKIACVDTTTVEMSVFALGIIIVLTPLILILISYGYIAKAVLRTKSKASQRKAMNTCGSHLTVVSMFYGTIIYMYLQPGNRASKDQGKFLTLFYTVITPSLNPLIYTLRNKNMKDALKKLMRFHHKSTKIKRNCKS
In outline: (§1)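 Assay methods differ from source to source, frequently being transient luciferase assays in mammalian cell lines. For each receptor–molecule pair, the label responsive (active) applies when the original authors judged the measured signal statistically different from baseline, and non-responsive (inactive) applies otherwise.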

The test system of the next assay is T2, OR2W3.
T2 sequence (whole entry): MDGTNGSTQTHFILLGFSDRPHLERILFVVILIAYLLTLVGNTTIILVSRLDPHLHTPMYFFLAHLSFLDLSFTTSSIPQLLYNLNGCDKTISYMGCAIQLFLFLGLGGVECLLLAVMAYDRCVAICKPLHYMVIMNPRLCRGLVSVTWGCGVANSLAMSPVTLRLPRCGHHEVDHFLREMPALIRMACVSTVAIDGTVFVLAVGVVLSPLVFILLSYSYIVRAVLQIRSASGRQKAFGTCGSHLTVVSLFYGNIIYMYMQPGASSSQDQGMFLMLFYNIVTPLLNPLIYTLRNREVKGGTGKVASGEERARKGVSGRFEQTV
In outline:
as §1

For another assay, the target named is T3, OR2W5P (Homo sapiens) (UniProt A6NFC9).
T3 sequence (whole entry): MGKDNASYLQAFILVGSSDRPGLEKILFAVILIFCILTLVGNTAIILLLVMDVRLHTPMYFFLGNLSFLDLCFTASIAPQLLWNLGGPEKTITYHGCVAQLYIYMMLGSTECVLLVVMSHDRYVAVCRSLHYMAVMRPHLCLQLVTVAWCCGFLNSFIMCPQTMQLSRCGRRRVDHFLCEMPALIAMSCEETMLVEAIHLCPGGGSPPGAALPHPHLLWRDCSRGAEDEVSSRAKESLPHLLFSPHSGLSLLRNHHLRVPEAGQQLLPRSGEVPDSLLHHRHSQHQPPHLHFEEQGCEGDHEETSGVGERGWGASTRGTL
In outline:
as §1

The next assay concerns T4, OR2Y1.
T4 sequence (whole entry): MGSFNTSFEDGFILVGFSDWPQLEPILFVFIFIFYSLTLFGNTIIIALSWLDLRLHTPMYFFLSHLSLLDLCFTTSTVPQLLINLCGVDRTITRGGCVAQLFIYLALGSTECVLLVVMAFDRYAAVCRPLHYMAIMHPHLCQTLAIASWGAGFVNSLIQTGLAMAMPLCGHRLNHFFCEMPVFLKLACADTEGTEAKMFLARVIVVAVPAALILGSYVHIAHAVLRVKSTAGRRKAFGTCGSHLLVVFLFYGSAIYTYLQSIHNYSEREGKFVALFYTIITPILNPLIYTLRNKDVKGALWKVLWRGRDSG
An outline of the steps:
as §1

For the next assay, the target named is T5, OR2Z1 (Homo sapiens) (UniProt Q8NG97).
T5 sequence (whole entry): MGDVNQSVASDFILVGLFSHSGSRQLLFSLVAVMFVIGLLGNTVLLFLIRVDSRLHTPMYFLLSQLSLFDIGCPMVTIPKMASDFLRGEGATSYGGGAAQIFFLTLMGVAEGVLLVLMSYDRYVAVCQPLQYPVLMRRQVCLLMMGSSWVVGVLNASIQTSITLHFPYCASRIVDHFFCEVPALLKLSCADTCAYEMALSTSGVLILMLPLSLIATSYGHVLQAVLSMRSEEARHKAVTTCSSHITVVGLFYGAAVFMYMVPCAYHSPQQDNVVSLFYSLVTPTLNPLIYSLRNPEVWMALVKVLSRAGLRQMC
An outline of the steps: as §1

The target of a further assay is T6, OR3A1 (Homo sapiens) (UniProt P47881).
T6 sequence (whole entry): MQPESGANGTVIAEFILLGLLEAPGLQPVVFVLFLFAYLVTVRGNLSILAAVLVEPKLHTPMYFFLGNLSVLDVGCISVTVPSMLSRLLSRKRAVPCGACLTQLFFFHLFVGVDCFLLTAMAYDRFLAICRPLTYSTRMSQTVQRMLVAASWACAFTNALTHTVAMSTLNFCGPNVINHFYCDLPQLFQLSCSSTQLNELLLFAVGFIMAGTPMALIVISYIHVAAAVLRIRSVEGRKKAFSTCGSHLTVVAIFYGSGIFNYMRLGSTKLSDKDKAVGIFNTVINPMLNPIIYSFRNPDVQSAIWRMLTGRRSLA
In outline: as §1

The target of a further assay is T7, OR3A2 (Homo sapiens) (UniProt P47893).
T7 sequence (whole entry): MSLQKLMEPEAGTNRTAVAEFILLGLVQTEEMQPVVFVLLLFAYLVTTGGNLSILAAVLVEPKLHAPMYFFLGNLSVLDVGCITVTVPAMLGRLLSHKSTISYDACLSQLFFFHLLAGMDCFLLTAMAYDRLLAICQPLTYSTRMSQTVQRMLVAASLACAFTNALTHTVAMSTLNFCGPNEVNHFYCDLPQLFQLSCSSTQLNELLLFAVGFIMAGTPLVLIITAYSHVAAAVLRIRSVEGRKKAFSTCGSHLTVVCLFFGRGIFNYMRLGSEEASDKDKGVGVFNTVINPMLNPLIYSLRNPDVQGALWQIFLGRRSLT
In outline: as §1

The test system of a further assay is T8, OR3A3.
T8 sequence (whole entry): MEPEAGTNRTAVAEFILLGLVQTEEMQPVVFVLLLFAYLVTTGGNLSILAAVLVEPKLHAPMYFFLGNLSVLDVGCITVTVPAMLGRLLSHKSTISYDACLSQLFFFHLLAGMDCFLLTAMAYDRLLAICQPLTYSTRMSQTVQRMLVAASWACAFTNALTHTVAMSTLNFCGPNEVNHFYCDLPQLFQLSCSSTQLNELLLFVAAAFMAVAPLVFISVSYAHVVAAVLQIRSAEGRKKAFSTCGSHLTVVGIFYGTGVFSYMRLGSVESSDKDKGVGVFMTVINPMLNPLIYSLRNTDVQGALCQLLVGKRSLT
In outline:
as §1

The test system of the next assay is T9, OR3A4.
T9 sequence (whole entry): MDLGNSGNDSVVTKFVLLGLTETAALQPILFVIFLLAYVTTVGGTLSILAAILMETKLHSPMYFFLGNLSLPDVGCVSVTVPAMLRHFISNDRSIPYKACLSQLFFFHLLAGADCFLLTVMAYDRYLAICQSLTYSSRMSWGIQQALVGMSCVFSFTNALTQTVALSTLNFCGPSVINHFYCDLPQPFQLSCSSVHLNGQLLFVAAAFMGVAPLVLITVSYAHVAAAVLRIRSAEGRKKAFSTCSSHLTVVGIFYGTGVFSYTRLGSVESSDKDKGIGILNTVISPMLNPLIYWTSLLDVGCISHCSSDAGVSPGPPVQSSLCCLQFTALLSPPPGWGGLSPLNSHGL
An outline of the steps: as §1

A further assay addresses T10, OR4A16 (Homo sapiens) (UniProt Q8NH70).
T10 sequence (whole entry): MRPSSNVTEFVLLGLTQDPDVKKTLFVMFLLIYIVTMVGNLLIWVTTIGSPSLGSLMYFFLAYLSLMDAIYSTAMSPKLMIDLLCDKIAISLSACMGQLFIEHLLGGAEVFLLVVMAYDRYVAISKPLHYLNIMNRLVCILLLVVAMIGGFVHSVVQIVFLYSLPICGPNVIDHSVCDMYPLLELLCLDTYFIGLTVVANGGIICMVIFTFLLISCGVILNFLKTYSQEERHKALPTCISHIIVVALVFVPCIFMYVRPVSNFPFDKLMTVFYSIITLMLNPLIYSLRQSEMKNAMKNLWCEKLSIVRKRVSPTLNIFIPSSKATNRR
In outline: as §1

Another assay concerns the target T11, OR4A4P (Homo sapiens) (UniProt Q8NGN8).
T11 sequence (whole entry): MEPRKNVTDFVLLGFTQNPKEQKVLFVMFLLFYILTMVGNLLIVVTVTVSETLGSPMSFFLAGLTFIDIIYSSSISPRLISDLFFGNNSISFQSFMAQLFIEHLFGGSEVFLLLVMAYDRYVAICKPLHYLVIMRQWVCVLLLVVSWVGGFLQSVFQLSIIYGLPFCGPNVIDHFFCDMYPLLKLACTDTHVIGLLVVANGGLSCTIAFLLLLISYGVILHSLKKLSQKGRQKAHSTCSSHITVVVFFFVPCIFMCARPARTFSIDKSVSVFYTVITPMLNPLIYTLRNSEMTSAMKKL
In outline:
as §1

The next assay concerns the target T12, OR4A5 (Homo sapiens) (UniProt Q8NH83).
T12 sequence (whole entry): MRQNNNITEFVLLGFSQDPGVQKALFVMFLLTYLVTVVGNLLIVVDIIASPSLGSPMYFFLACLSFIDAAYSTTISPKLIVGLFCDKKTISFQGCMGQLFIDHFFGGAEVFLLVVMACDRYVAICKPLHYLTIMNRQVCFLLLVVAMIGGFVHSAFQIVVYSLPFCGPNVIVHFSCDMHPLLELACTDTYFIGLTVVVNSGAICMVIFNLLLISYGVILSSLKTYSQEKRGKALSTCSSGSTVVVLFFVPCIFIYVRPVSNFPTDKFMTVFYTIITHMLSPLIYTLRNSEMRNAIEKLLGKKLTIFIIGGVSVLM
In outline: as §1

Another assay concerns T13, OR4A5.
T13 sequence (whole entry): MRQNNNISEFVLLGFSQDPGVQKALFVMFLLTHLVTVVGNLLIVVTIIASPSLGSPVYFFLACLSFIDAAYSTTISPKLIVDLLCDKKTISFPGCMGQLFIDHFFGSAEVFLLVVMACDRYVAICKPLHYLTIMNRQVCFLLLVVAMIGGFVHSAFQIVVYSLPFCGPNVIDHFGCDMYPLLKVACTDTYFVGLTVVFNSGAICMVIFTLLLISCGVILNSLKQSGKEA
An outline of the steps:
as §1

The next assay addresses T14, OR4B1 (Homo sapiens) (UniProt Q8NGF8).
T14 sequence (whole entry): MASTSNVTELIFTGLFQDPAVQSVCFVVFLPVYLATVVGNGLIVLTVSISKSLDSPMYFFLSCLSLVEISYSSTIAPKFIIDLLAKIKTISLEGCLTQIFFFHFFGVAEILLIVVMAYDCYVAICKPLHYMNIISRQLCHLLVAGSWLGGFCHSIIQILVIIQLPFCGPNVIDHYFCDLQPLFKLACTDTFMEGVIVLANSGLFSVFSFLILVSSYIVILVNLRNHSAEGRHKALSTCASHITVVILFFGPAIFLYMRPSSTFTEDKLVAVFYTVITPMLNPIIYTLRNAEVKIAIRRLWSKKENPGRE
An outline of the steps: as §1

Another assay addresses T15, OR4C11 (Homo sapiens) (UniProt Q6IEV9).
T15 sequence (whole entry): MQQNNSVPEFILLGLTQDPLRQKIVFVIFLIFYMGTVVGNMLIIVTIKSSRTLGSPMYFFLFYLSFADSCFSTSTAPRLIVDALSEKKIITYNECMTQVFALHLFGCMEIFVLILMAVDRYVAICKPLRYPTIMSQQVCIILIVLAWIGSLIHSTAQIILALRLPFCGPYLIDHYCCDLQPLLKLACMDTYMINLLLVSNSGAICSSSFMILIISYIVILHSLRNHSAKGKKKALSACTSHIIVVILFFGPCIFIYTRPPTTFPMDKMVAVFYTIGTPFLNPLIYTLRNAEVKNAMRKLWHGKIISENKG
An outline of the steps:
as §1

The entries are a selection whose mix differs from that of the whole data set. The calls were merged from several studies; some rest on single wells. The list shows a part of the results. This is one part of the list.

On to `CC(C)CCC(=O)O`, for which the “odorant receptor agonist call” value with OR2W1, in the assay with OR2W3, with OR2W5P (Homo sapiens), in the assay on OR2Y1, with OR2Z1 (Homo sapiens) and with OR3A1 (Homo sapiens) was “inactive” each time. The “odorant receptor agonist call” value with OR3A2 (Homo sapiens), with OR3A3, with OR3A4, with OR4A16 (Homo sapiens), in the assay with OR4A4P (Homo sapiens) and with OR4A5 (Homo sapiens) was “inactive” throughout. In addition, the “odorant receptor agonist call” value in the assay on OR4A5, in the assay with OR4B1 (Homo sapiens) and in the assay with OR4C11 (Homo sapiens) was “inactive” in each case.
Regarding `CC(=O)c1ccccc1`, the “odorant receptor agonist call” value in the assay with OR2W1, in the assay with OR2Z1 (Homo sapiens), with OR3A1 (Homo sapiens), with OR3A2 (Homo sapiens) and in the assay with OR4A5 was “active” in each case. Besides, the “odorant receptor agonist call” value with OR2W3, in the assay with OR2W5P (Homo sapiens), in the assay with OR2Y1, with OR4A16 (Homo sapiens), in the assay with OR4A4P (Homo sapiens) and with OR4B1 (Homo sapiens) was “inactive” each time. Besides, the “odorant receptor agonist call” value in the assay with OR4C11 (Homo sapiens) is “inactive”.
For `CCCCCCCC=CC=O`, the “odorant receptor agonist call” value with OR2W1, with OR2W5P (Homo sapiens), in the assay on OR2Y1, with OR2Z1 (Homo sapiens), with OR3A1 (Homo sapiens) and with OR3A2 (Homo sapiens) was “inactive” in each case. In addition, the “odorant receptor agonist call” value with OR3A3, with OR3A4, in the assay with OR4A16 (Homo sapiens), with OR4A4P (Homo sapiens), with OR4A5 (Homo sapiens) and in the assay with OR4A5 was “inactive” throughout. Besides, the “odorant receptor agonist call” value in the assay with OR4B1 (Homo sapiens) and with OR4C11 (Homo sapiens) was “inactive” each time. Further, the “odorant receptor agonist call” value in the assay with OR2W3 is “active”.

Source of the values: the M2OR odorant receptor database.
